The campaign covered roughly 53,000 sequences. About 3,700 (7%) were called active.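 Rule for the calls: active = gene knockdowns whose robust z-score for IL-1 alpha signal is at least 2 or at most -2, so actives lie on both sides; inactive = the rest.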 The list shows a part of the results.
Assay: Components of the Cytosolic LPS Sensing Pathway: Gene Identification via Genome-wide siRNA Screen;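 note: robust z of the log signal after scaling to non-targeting control siRNA wells of the plate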
Details: RAW264.7 macrophages, IL-1a HTRF, actives lie on both sides, screened at 100 nM (by protocol), cells primed 5 h with Pam3CSK4 first
In short: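 Mouse macrophage line RAW264.7 is transfected with siRNA (100 nM final), grown 48h, primed with TLR ligand Pam3CSK4 5 h and given intracellular LipidA 24 h. IL-1a in supernatant is read by HTRF and viability by luminescence.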

| Sequence | z-score |
| --- | --- |
| GGAAUAGGACCUAUGUCUGTT against Nr2e1 | inactive: -0.455 |
| GGCGGUGAUAUUCUAGAAGTT against Dmxl2 | inactive: 1.65 |
| GCCGAUAUUGUGACAAGAUTT against Cd72 | inactive: 0.352 |
| GGGCUUCAUUAAGGACUGCTT against Ncs1 | inactive: 1.62 |
| GGCUUGGUUCUGGUACCUUTT against Ddx28 | inactive: -0.984 |
| GGUUGUGAAGUGAGAAUUCTT against S100pbp | inactive: -1.58 |
| GGAGAUAAUGAAGAAGGUUTT against Mgat5 | inactive: 0.658 |
| CGAACAACCUCAUUUCAUGTT against Atp8b1 | inactive: 0.9 |
| GCAAUCCAAAGUUUUAAUCTT against Septin7 | inactive: 0.39 |
| GCUAAAAACGAGAUAAGAGTT against Snx2 | inactive: -0.316 |
| GGAUCAACCUAGAAGCUUGTT against Strada | inactive: -0.192 |
| GGCGUGUCAAAGAAAUUUUTT against Vmn1r171 | inactive: 0.489 |
| CCUUGUUCCCUUAUUGUACTT against Olfr362 | inactive: -0.994 |
| GGAUCUUGAGAAGAAGUAUTT against Adcy6 | inactive: -1.15 |
| GGCCAUCUGCUCCUUUAUUTT against Aqp11 | inactive: -0.2 |
| CGGAAAAAGAAGGACAUCCTT against Mesd | inactive: 0.51 |
| GCACGAGAGACAUUUCUCCTT against Kat7 | active: -2.32 |
| GGUUCUGGUUGAUAGAGAUTT against 4931428L18Rik | inactive: 0.373 |
| CCUCCUAAGGAUGAAGAUUTT against Calml4 | inactive: 0.654 |
| GCUGGUAACAGAAUUUCUUTT against Aox2 | inactive: 0.515 |
| CCACUGAGCCCAAUGGGUUTT against Nrxn2 | inactive: -0.0236 |
| GGUAAUGUUUGAAACUUACTT against Actr2 | inactive: 0.000493 |

| Sequence | z-score |
| --- | --- |
| GGAUAUACUUACGUAACGGTT against Srp9 | inactive: -0.0154 |
| CCUAAAUUAGUAGGACGGUTT against Cdkn1a | inactive: 0.675 |
| CCAUAUUUCAGAUCAGACUTT against Zfp68 | inactive: 0.364 |
| GGAACCUGUACAGAUAAAGTT against Pam | inactive: -0.409 |
| GCUGAAAUACGCUGACAUCTT against Jdp2 | inactive: 0.18 |
| GGCAGAAAGAAAUUGAGAATT against Trim42 | inactive: -0.655 |
| CGGGUGCCGGAAAGUUUAUTT against Klf7 | active: 2.84 |
| CGGUUUCACGAAUUCCUCCTT against Scaper | active: -2.16 |
| GCCAUAAGAUGCUACAGUGTT against Tubb6 | inactive: 1.53 |
| CGAGCCGUUAAACAGUUCUTT against Cyb561a3 | inactive: 0.0936 |
| GGCAAUUGGAAAUGCCCUGTT against Atp5h | inactive: -0.323 |
| CCCUCCAUGUCUAAAAAAATT against Kcmf1 | inactive: -1.19 |
| CCUUAACCUGGACAAGUGCTT against Itm2b | inactive: 1.12 |
| GCUCCUAUUACUGAAUUUATT against Olfr749 | inactive: -0.445 |
| GGGCUCCACUGUUGUUAUATT against Mid1ip1 | inactive: -0.268 |
| GGCUUUUGUUUUGAGGUAGTT against Zbed3 | inactive: 1.11 |
| GCGAUCCACGAGAAACAGATT against Prrc1 | inactive: 0.124 |
| GGUUUUCUUCUGAAUACCCTT against Dusp4 | inactive: 0.402 |
| CCAAGUUAGUGGAUGAAUGTT against Ugt2b35 | inactive: -0.555 |
| GGGACAAUGGAGCAAGAUGTT against Fbxo42 | inactive: -0.923 |
| CCAUCAAAACGAUCAACAATT against Setbp1 | inactive: -1.24 |
| GGACAUUGAACAACACUAUTT against Krt9 | inactive: -1.17 |

| Sequence | z-score |
| --- | --- |
| GGUUACUUAGCUUUUCUGATT against Tnfaip2 | inactive: 0.094 |
| GGUUGGACAAAAUGAUCUUTT against Abhd5 | inactive: 0.749 |
| GCUCGUAAUCUUUAUUGUUTT against Olfr874 | inactive: 0.527 |
| UGGACUGUAUUGAAAACCATT against Maf | inactive: -1.61 |
| GGACCAGGAUAGGACCAAUTT against Avpr2 | active: 2.33 |
| GGUGGAGAUGGAAAACAUGTT against Myoz1 | inactive: 0.95 |
| GGCAGCUUAGCUACUAUUCTT against Zfyve28 | inactive: 0.58 |
| CGCCUGUGUUUCGUACGUUTT against Mafg | inactive: 0.29 |
| GGGACACCUAUUUUAUCCATT against St7 | inactive: -0.154 |
| CCUAAGCCCAAGAUCAUCUTT against Mybph | inactive: -0.627 |
| GGAUUCAGCAGACUUUGAATT against Gask1a | inactive: 0.385 |
| GGGAUUUCUUACCCUGUUUTT against Prr7 | inactive: -0.222 |
| GGUCAACCUCAUGUUACGATT against Card11 | inactive: -0.864 |
| GCUCAUGAUAUUACCUUCGTT against Olfr601 | inactive: -1.53 |
| GGAAAUGGUAGCCAGAGUGTT against Dcpp1 | inactive: -1.83 |
| GAUAAUAUCUUUGUCUGCUTT against Olfr461 | inactive: -1.58 |
| GCUGCGUCCUAUGAGUUUATT against Drg2 | inactive: 1.72 |
| GGAGUCGUGUAUUUUGCUGTT against B3gat3 | inactive: -0.187 |
| GGCGAGACGACACAUUUUCTT against Cdc16 | inactive: -1.26 |
| GGAAAAAGAGCAAAUUACUTT against Kif23 | inactive: 0.354 |
| GCAGAUUUUCCUUGUAGAATT against Smad2 | inactive: 1.17 |
| CGAUGCAUUCAUUGUCUAUTT against A830073O21Rik | inactive: 0.092 |

| Sequence | z-score |
| --- | --- |
| GCUUCCUCAAGCGCAUGUATT against Cox10 | inactive: 1.8 |
| GGCUAAAAACUACCUCCUGTT against Klhl20 | inactive: -0.822 |
| GCCGCACUAAAUUCUCUUATT against H2-Oa | inactive: 0.3 |
| GGAAAAUGUUUCUGAUGAATT against Nfat5 | inactive: -0.478 |
| GCUGCCAAAGUGACAUAGATT against Notch3 | inactive: 1.35 |
| GGUCACUGGAGCUUUAAUATT against Olfr705 | inactive: 0.53 |
| GGAUGAAGUGUGUUUUGGCTT against Sim1 | inactive: 0.95 |
| GGCCACCUAAAACUAUAUATT against Cd59a | inactive: -1.94 |
| CCUGAUUCAAAUGCUCUCCTT against Nlrx1 | inactive: 0.293 |
| CCAUGGGCAUCAAACAUUCTT against Odf3l1 | inactive: 0.238 |
| GGUUUUAAAGAAGACGGUATT against Cfap298 | inactive: -0.886 |
| GGCCGUUUCACUACCAUUCTT against Ier2 | inactive: 0.259 |
| GCCUACUUCUGUUAAUUCUTT against Apon | inactive: 0.603 |
| GGACAAUCAGACCCUGUCATT against Use1 | inactive: -0.365 |
| GGAGGUGGAAAAUCUGUACTT against Cdca8 | inactive: 0.855 |
| GGGCGUACCUGUCUUUUCATT against Cpa6 | inactive: 0.93 |
| GCGAGUUGUAACAUUGCCATT against St14 | inactive: -0.712 |
| GGAGUUUCUGGAAGAGAUCTT against Ube3b | inactive: 0.7 |
| GGAGAUCGCACCUAAGAUUTT against Pgam2 | inactive: 0.22 |
| GGCCAUAUCUUAAAGUUAATT against Hcfc1r1 | inactive: -0.246 |
| GGCUUUUGGCUUCAACCCUTT against Slc39a14 | active: -2.24 |
| GGUUCUUGGUGAUGAUGAGTT against Pds5a | active: -2.6 |

| Sequence | z-score |
| --- | --- |
| GGAGAAUGACCAGCUGAUCTT against Ss18l2 | inactive: 0.547 |
| CGUAAAGUGACCUUAAGAATT against Lrrfip1 | inactive: -0.969 |
| GGCUCUGUGAAGAAAGUCATT against Cnn3 | inactive: 0.462 |
| GGCAAUUUGUGGAUUAUUGTT against Olfr1105 | inactive: -0.458 |
| GGAGAACAUCAAGAACAAUTT against Ap2m1 | active: 2.08 |
| GGAGUGGUAUUUUUACAAUTT against Slc34a1 | inactive: -0.162 |
| GGAUCAAAUUACAGAUCUUTT against Eef1e1 | inactive: 1.81 |
| GCACAAGACUUUAUAACCATT against Slc25a35 | inactive: -0.838 |
| GGAAAGAAUGAGGAUGUGGTT against Pitx2 | active: -2.07 |
| GGUAAAAGUGGGUAGGAAATT against Ptprh | inactive: 0.595 |
| CCCAAUGUUUCUAAUCAUGTT against Arhgap12 | inactive: 0.306 |
| GGCAUUUUCACAAAAGACUTT against Rab23 | inactive: -1.43 |
| GGAUUUUCUUACACGGAUGTT against Cyct | inactive: -0.129 |
| GGGCACGAUCCUCUUCAACTT against Nr0b2 | inactive: 0.982 |
| GGAAGUUGUUUUGUUGGACTT against Epha2 | inactive: 0.275 |
| CGAGUUCCUAUGUUGGUGCTT against Cldn2 | inactive: -0.349 |
| GGCUUUCAAGGGUUGCCAATT against Ms4a3 | inactive: -0.622 |
| GCAGUUCUCCUAUUUCAUCTT against Cdc45 | active: 2.03 |
| GGGUAACGUGCUGCUUCUATT against Bri3 | inactive: 0.989 |
| GGGUGAGAAGAAAAUCCGGTT against Zbtb7a | inactive: -1.71 |
